{"source": "patent US6497896B2", "about": "“Method for administering camptothecins via injection of a pharmaceutical composition comprising microdroplets containing a camptothecin” (priority 2001, dated 2002)", "origin": "cited, not measured here", "conditions": "cited from earlier work", "note": "For at least one compound, name, drawing or mass did not settle the structure."}
{"smiles": "CC[C@@](O)(C(=O)[O-])c1cc2n(c(=O)c1CO)Cc1cc3ccccc3nc1-2.[Na+]", "note": "[Sodium camptothecin]", "values": [{"measurement": "potency relative to native camptothecin with closed lactone ring", "value": 10, "unit": "%"}]}
